This is one part of the list.
Experiments:
Assay in all cases: glycan array binding signal (z-score within array); higher = stronger binding
Settings in all cases: glycan notation: IUPAC condensed, linker removed
Neu5Ac(a2-8)Neu5Ac = biological target: Neu5Ac(a2-8)Neu5Ac
Summary of the method: (§1)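 Negative Z-scores can be read as non-binding. The Z-score is calculated within each array and then averaged across arrays of one protein sequence at different concentrations or buffers and across linkers. Arrays, 3228 in all, were curated from the Consortium for Functional Glycomics database and kept only where the protein sequence was available.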

[1] = biological target: Neu5Ac(a2-8)Neu5Ac(a2-3)Gal(b1-3)GalNAc(b1-4)[Neu5Ac(a2-3)]Gal(b1-4)Glc
Summary of the method: as §1

[2] = biological target: Neu5Ac(a2-8)Neu5Ac(a2-3)Gal(b1-3)GalNAc(b1-4)[Neu5Ac(a2-8)Neu5Ac(a2-3)]Gal(b1-4)Glc
Summary of the method: as §1

[3] = biological target: Neu5Ac(a2-8)Neu5Ac(a2-3)Gal(b1-4)Glc
Summary of the method: as §1

[4] = biological target: Neu5Ac(a2-8)Neu5Ac(a2-3)Gal(b1-4)GlcNAc
Summary of the method: as §1

[5] = biological target: Neu5Ac(a2-8)Neu5Ac(a2-3)[Gal(b1-3)GalNAc(b1-4)]Gal(b1-4)Glc
Summary of the method: as §1

[6] = biological target: Neu5Ac(a2-8)Neu5Ac(a2-3)[GalNAc(b1-4)]Gal(b1-4)Glc
Summary of the method: as §1

[7] = biological target: Neu5Ac(a2-8)Neu5Ac(a2-8)Neu5Ac
Summary of the method: as §1

[8] = biological target: Neu5Ac(a2-8)Neu5Ac(a2-8)Neu5Ac(a2-3)Gal(b1-4)Glc
Summary of the method: as §1

[9] = biological target: Neu5Ac(a2-8)Neu5Ac(a2-8)Neu5Ac(a2-3)[Gal(b1-3)GalNAc(b1-4)]Gal(b1-4)Glc
Summary of the method: as §1

[10] = biological target: Neu5Ac(a2-8)Neu5Ac(a2-8)Neu5Ac(a2-3)[GalNAc(b1-4)]Gal(b1-4)Glc
Summary of the method: as §1

[11] = biological target: Neu5Ac(a2-8)Neu5Ac(a2-8)Neu5Ac(a2-8)Neu5Ac(a2-3)[GalNAc(b1-4)]Gal(b1-4)Glc
Summary of the method: as §1

[12] = biological target: Neu5Ac(a2-8)Neu5Gc(a2-3)Gal(b1-4)GlcNAc
Summary of the method: as §1

[13] = biological target: Neu5Ac(b2-6)Gal(b1-4)GlcNAc
Summary of the method: as §1

Neu5Ac(b2-6)GalNAc = biological target: Neu5Ac(b2-6)GalNAc
Summary of the method: as §1

[14] = biological target: Neu5Ac9Ac(a2-3)Gal(b1-3)GlcNAc
Summary of the method: as §1

[15] = biological target: Neu5Ac9Ac(a2-3)Gal(b1-4)GlcNAc
Summary of the method: as §1

[16] = biological target: Neu5Ac9Ac(a2-6)Gal(b1-4)GlcNAc
Summary of the method: as §1

[17] = biological target: Neu5Gc(a2-3)Gal(b1-3)GlcNAc
Summary of the method: as §1

[18] = biological target: Neu5Gc(a2-3)Gal(b1-3)[Fuc(a1-4)]GlcNAc
Summary of the method: as §1

Neu5Gc(a2-3)Gal(b1-4)Glc = biological target: Neu5Gc(a2-3)Gal(b1-4)Glc
Summary of the method: as §1

[19] = biological target: Neu5Gc(a2-3)Gal(b1-4)GlcNAc
Summary of the method: as §1

[20] = biological target: Neu5Gc(a2-3)Gal(b1-4)GlcNAc(b1-3)Gal(b1-4)GlcNAc(b1-2)Man(a1-3)[Neu5Gc(a2-3)Gal(b1-4)GlcNAc(b1-3)Gal(b1-4)GlcNAc(b1-2)Man(a1-6)]Man(b1-4)GlcNAc(b1-4)GlcNAc
Summary of the method: as §1

[21] = biological target: Neu5Gc(a2-3)Gal(b1-4)[Fuc(a1-3)]GlcNAc
Summary of the method: as §1

[22] = biological target: Neu5Gc(a2-6)Gal(b1-4)GlcNAc
Summary of the method: as §1

Neu5Gc(a2-6)GalNAc = biological target: Neu5Gc(a2-6)GalNAc
Summary of the method: as §1

[23] = biological target: Neu5Gc(a2-8)Neu5Ac(a2-3)Gal(b1-4)GlcNAc
Summary of the method: as §1

[24] = biological target: Neu5Gc(a2-8)Neu5Gc(a2-3)Gal(b1-4)GlcNAc
Summary of the method: as §1

[25] = biological target: Neu5Gc(a2-8)Neu5Gc(a2-3)Gal(b1-4)GlcNAc(b1-3)Gal(b1-4)GlcNAc
Summary of the method: as §1

[26] = biological target: Neu5Gc(a2-8)Neu5Gc(a2-6)Gal(b1-4)GlcNAc
Summary of the method: as §1

[27] = biological target: Neu5Gc(b2-6)Gal(b1-4)GlcNAc
Summary of the method: as §1

B1: cFel (Cyprinus carpio), P68512 (protein)
chain: LDCTVIDGNLKQIDAGSGSVVGVNNLNETFVLIDNVFTKISGSLKHFSVGPAGQLGVNTANNIFKYQSGGFVQLAGLLKQVDAGGDQIIAGVNMYDDIYCLNMDANNKWPSSNTPWVQINGKLKYYSCGPYSCWGVNSNDQIFIMKDVSSNVCSGSGSFINIPGLLSMIEVATDGSVFGVNSQGNLYQRTGVTRSKPDGTDWISMVACPNGHKHVSFDLGVLWLVCVDGSIRKCILTD
glycan array binding signal (z-score) (Neu5Ac(a2-8)Neu5Ac): -0.089
glycan array binding signal (z-score) [1]: -0.099
glycan array binding signal (z-score) [2]: -0.344
glycan array binding signal (z-score) [3]: 0.161
glycan array binding signal (z-score) [4]: -0.444
glycan array binding signal (z-score) [5]: 0.548
glycan array binding signal (z-score) [6]: -0.006
glycan array binding signal (z-score) [7]: 1.01
glycan array binding signal (z-score) [8]: 0.979
glycan array binding signal (z-score) [9]: 1.15
glycan array binding signal (z-score) [10]: -0.16
glycan array binding signal (z-score) [11]: -1.02
glycan array binding signal (z-score) [12]: 2.02
glycan array binding signal (z-score) [13]: 2.28
glycan array binding signal (z-score) (Neu5Ac(b2-6)GalNAc): 0.244
glycan array binding signal (z-score) [14]: 1.08
glycan array binding signal (z-score) [15]: -0.301
glycan array binding signal (z-score) [16]: -0.857
glycan array binding signal (z-score) [17]: 2.89
glycan array binding signal (z-score) [18]: -0.782
glycan array binding signal (z-score) (Neu5Gc(a2-3)Gal(b1-4)Glc): 0.825
glycan array binding signal (z-score) [19]: -0.514
glycan array binding signal (z-score) [20]: 0.736
glycan array binding signal (z-score) [21]: -0.862
glycan array binding signal (z-score) [22]: -1.34
glycan array binding signal (z-score) (Neu5Gc(a2-6)GalNAc): 0.828
glycan array binding signal (z-score) [23]: -0.275
glycan array binding signal (z-score) [24]: 0.265
glycan array binding signal (z-score) [25]: 0.267
glycan array binding signal (z-score) [26]: 2.13
glycan array binding signal (z-score) [27]: -0.806
